Measured values: ChEMBL document CHEMBL4513152, “CO-ADD screening of Yantai University (China) compounds”
This is one part of the list. Results with a measured potency or affinity are listed apart.

What follows are compounds tested on Pseudomonas aeruginosa. Conditions: Concentration 32 ug.mL-1; ASSAY_TEST Inhibition of Bacterial Growth; detection method Absorption (OD600); MEDIA CAMHB; plate type 384well; NBS; CORNING #3640; time 18 hr.

Structure (SMILES)	Inhibition [%]
CC(=O)O[C@H]1C[C@@]2(C)C(C[C@@H](O)C3[C@@]4(C)CC[C@@H](OC(=O)C(N)C(C)C)[C@@H](C)C4CC[C@@]32C)/C1=C(\CCC=C(C)C)C(=O)OCc1ccccc1 (some centres undefined)	9.96
CC(=O)O[C@H]1C[C@@]2(C)C(C[C@@H](O)C3[C@@]4(C)CC[C@@H](OC(=O)C(C)N)[C@@H](C)C4CC[C@@]32C)/C1=C(\CCC=C(C)C)C(=O)OCc1ccccc1 (some centres undefined)	-8.64
CC(=O)O[C@H]1C[C@@]2(C)C(C[C@@H](O)C3[C@@]4(C)CC[C@@H](OC(=O)CCCCO[N+](=O)[O-])[C@@H](C)C4CC[C@@]32C)/C1=C(\CCC=C(C)C)C(=O)OCc1ccccc1 (some centres undefined)	-7
CC(=O)O[C@H]1C[C@@]2(C)C(C[C@@H](O)C3[C@@]4(C)CC[C@@H](OC(=O)c5ccccc5C(=O)Nc5cccc(N)c5)[C@@H](C)C4CC[C@@]32C)/C1=C(\CCC=C(C)C)C(=O)OCc1ccccc1 (some centres undefined)	-2.99
CC(=O)O[C@H]1C[C@@]2(C)C(C[C@@H](O)C3[C@@]4(C)CC[C@@H](O)[C@@H](C)C4CC[C@@]32C)/C1=C(\CCC=C(C)C)C(=O)Oc1ccc(CCO[N+](=O)[O-])cc1 (some centres undefined)	21.63
CC(=O)O[C@H]1C[C@@]2(C)C(C[C@@H](O)C3[C@@]4(C)CC[C@@H](OC(=O)C(N)CC(C)C)[C@@H](C)C4CC[C@@]32C)/C1=C(\CCC=C(C)C)C(=O)OCc1ccccc1 (some centres undefined)	1.52
CC(=O)O[C@H]1C[C@@]2(C)C(C[C@@H](O)C3[C@@]4(C)CC[C@@H](OC(=O)CO[N+](=O)[O-])[C@@H](C)C4CC[C@@]32C)/C1=C(\CCC=C(C)C)C(=O)OCc1ccccc1 (some centres undefined)	19.94
CC(=O)O[C@H]1C[C@@]2(C)C(C[C@@H](O)C3[C@@]4(C)CC[C@@H](OC(=O)c5ccccc5C(=O)OCCc5ccc(OCCO[N+](=O)[O-])cc5)[C@@H](C)C4CC[C@@]32C)/C1=C(\CCC=C(C)C)C(=O)OCc1ccccc1 (some centres undefined)	-2.35
CC(=O)O[C@H]1C[C@@]2(C)C(C[C@@H](O)C3[C@@]4(C)CC[C@@H](OC(=O)CCC(=O)OCCc5ccc(OCCO[N+](=O)[O-])cc5)[C@@H](C)C4CC[C@@]32C)/C1=C(\CCC=C(C)C)C(=O)OCc1ccccc1 (some centres undefined)	-6.68
CC(=O)O[C@H]1C[C@@]2(C)C(C[C@@H](O)C3[C@@]4(C)CC[C@@H](OC(=O)CCC(=O)Oc5ccc(CCO[N+](=O)[O-])cc5)[C@@H](C)C4CC[C@@]32C)/C1=C(\CCC=C(C)C)C(=O)OCc1ccccc1 (some centres undefined)	-14.93
CC(=O)O[C@H]1C[C@@]2(C)C(C[C@@H](O)C3[C@@]4(C)CC[C@@H](OC(=O)CCCCCO[N+](=O)[O-])[C@@H](C)C4CC[C@@]32C)/C1=C(\CCC=C(C)C)C(=O)OCc1ccccc1 (some centres undefined)	-10.11
CC(=O)O[C@H]1C[C@@]2(C)C(C[C@@H](O)C3[C@@]4(C)CC[C@@H](O)[C@@H](C)C4CC[C@@]32C)/C1=C(\CCC=C(C)C)C(=O)On1nnc2ccccc21 (some centres undefined)	1.28
CC(=O)O[C@H]1C[C@@]2(C)C(CC(=O)C3[C@@]4(C)CC[C@@H](OC(=O)CCCCO[N+](=O)[O-])[C@@H](C)C4CC[C@@]32C)/C1=C(\CCC=C(C)C)C(=O)OCc1ccccc1 (some centres undefined)	-3.24
CC(=O)O[C@H]1C[C@@]2(C)C(C[C@@H](O)C3[C@@]4(C)CC[C@@H](OC(=O)c5ccccc5C(=O)Nc5ccc(N)cc5)[C@@H](C)C4CC[C@@]32C)/C1=C(\CCC=C(C)C)C(=O)OCc1ccccc1 (some centres undefined)	-5.95
CC(=O)O[C@H]1C[C@@]2(C)C(C[C@@H](O)C3[C@@]4(C)CC[C@@H](OC(=O)c5ccccc5C(=O)Oc5ccc(CCO[N+](=O)[O-])cc5)[C@@H](C)C4CC[C@@]32C)/C1=C(\CCC=C(C)C)C(=O)OCc1ccccc1 (some centres undefined)	-5.04
CC(=O)O[C@H]1C[C@@]2(C)C(CC(=O)C3[C@@]4(C)CC[C@@H](OC(=O)CCCCCO[N+](=O)[O-])[C@@H](C)C4CC[C@@]32C)/C1=C(\CCC=C(C)C)C(=O)OCc1ccccc1 (some centres undefined)	-3.27
CC(=O)O[C@H]1C[C@@]2(C)C(C[C@@H](O)C3[C@@]4(C)CC[C@@H](OC(=O)CCC(=O)O)[C@@H](C)C4CC[C@@]32C)/C1=C(\CCC=C(C)C)C(=O)OCc1ccccc1 (some centres undefined)	2.25
CC(=O)O[C@H]1C[C@@]2(C)C(C[C@@H](O)C3[C@@]4(C)CC[C@@H](O)[C@@H](C)C4CC[C@@]32C)/C1=C(\CCC=C(C)C)C(=O)OCc1ccccc1 (some centres undefined)	15.35
CC(=O)O[C@H]1C[C@@]2(C)C(CC(=O)C3[C@@]4(C)CCC(=O)[C@@H](C)C4CC[C@@]32C)/C1=C(\CCC=C(C)C)C(=O)OCc1ccccc1 (some centres undefined)	6.01

Arranged by count of non-hydrogen atoms (largest number first): 3 of the compounds above.
Structure (SMILES)	Inhibition [%]
CC(=O)O[C@H]1C[C@@]2(C)C(C[C@@H](O)C3[C@@]4(C)CC[C@@H](OC(=O)CCC(=O)OCCc5ccc(OCCO[N+](=O)[O-])cc5)[C@@H](C)C4CC[C@@]32C)/C1=C(\CCC=C(C)C)C(=O)OCc1ccccc1 (some centres undefined)	-6.68
CC(=O)O[C@H]1C[C@@]2(C)C(C[C@@H](O)C3[C@@]4(C)CC[C@@H](OC(=O)c5ccccc5C(=O)Nc5cccc(N)c5)[C@@H](C)C4CC[C@@]32C)/C1=C(\CCC=C(C)C)C(=O)OCc1ccccc1 (some centres undefined)	-2.99
CC(=O)O[C@H]1C[C@@]2(C)C(C[C@@H](O)C3[C@@]4(C)CC[C@@H](O)[C@@H](C)C4CC[C@@]32C)/C1=C(\CCC=C(C)C)C(=O)On1nnc2ccccc21 (some centres undefined)	1.28
